This test concerns the target HA-tagged p85β (UniProt O00459). The test is described as follows: co-IP.

Chains of the proteins cited; added tags and fusions are not shown. Lines headed by an entry give the natural chain unless they say otherwise; changes in a name come on top.
UniProt O00459, whole entry: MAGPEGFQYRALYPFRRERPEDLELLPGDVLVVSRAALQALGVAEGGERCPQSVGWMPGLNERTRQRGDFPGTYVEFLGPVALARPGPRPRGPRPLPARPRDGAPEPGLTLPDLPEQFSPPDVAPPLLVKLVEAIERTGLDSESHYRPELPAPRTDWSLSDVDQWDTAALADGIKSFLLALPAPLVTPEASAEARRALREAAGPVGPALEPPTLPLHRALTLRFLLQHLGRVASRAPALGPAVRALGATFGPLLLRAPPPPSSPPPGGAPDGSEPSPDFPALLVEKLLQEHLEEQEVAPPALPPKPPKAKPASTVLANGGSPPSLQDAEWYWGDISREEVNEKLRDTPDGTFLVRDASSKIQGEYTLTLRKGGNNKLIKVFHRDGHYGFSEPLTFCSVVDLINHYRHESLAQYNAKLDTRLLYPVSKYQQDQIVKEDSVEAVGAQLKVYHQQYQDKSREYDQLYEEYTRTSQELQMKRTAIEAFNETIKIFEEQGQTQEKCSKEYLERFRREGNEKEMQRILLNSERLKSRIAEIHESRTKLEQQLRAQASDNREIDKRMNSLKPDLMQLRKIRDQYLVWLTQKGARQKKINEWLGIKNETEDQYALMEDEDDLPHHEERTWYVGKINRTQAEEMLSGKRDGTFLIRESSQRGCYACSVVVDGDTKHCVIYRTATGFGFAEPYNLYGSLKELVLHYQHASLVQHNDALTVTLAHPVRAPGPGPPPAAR

Results are given in words; binding and its absence hold for the method and conditions named. In cells and extracts the contact can be indirect. Some entries that bind do so weakly or less than the wild type. Sequences can lack the tags named with a protein.

B1: FLAG-tagged wild type p110δ (protein, UniProt O00329 1-1044)
chain: MPPGVDCPMEFWTKEENQSVVVDFLLPTGVYLNFPVSRNANLSTIKQLLWHRAQYEPLFHMLSGPEAYVFTCINQTAEQQELEDEQRRLCDVQPFLPVLRLVAREGDRVKKLINSQISLLIGKGLHEFDSLCDPEVNDFRAKMCQFCEEAAARRQQLGWEAWLQYSFPLQLEPSAQTWGPGTLRLPNRALLVNVKFEGSEESFTFQVSTKDVPLALMACALRKKATVFRQPLVEQPEDYTLQVNGRHEYLYGSYPLCQFQYICSCLHSGLTPHLTMVHSSSILAMRDEQSNPAPQVQKPRAKPPPIPAKKPSSVSLWSLEQPFRIELIQGSKVNADERMKLVVQAGLFHGNEMLCKTVSSSEVSVCSEPVWKQRLEFDINICDLPRMARLCFALYAVIEKAKKARSTKKKSKKADCPIAWANLMLFDYKDQLKTGERCLYMWPSVPDEKGELLNPTGTVRSNPNTDSAAALLICLPEVAPHPVYYPALEKILELGRHSECVHVTEEEQLQLREILERRGSGELYEHEKDLVWKLRHEVQEHFPEALARLLLVTKWNKHEDVAQMLYLLCSWPELPVLSALELLDFSFPDCHVGSFAIKSLRKLTDDELFQYLLQLVQVLKYESYLDCELTKFLLDRALANRKIGHFLFWHLRSEMHVPSVALRFGLILEAYCRGSTHHMKVLMKQGEALSKLKALNDFVKLSSQKTPKPQTKELMHLCMRQEAYLEALSHLQSPLDPSTLLAEVCVEQCTFMDSKMKPLWIMYSNEEAGSGGSVGIIFKNGDDLRQDMLTLQMIQLMDVLWKQEGLDLRMTPYGCLPTGDRTGLIEVVLRSDTIANIQLNKSNMAATAAFNKDALLNWLKSKNPGEALDRAIEEFTLSCAGYCVATYVLGIGDRHSDNIMIRESGQLFHIDFGHFLGNFKTKFGINRERVPFILTYDFVHVIQQGKTNNSEKFERFRGYCERAYTILRRHGLLFLHLFALMRAAGLPELSCSKDIQYLKDSLALGKTEEEALKHFRVKFNEALRESWKTKVNWLAHNVSKDNRQ
Regarding B1, the binding entry was “binds”.

These data come from publication doi:10.1101/2025.06.26.659600.
